Data as given in PubChem BioAssay AID602196 (INSERM, 2012)
Screen: 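Knock-downs that protect lung cancer cells from cisplatin or sensitise them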. System: human A549 lung cancer cells. Knock-down reagent: siRNA pair against human genes. Duration: 48 h transfection before cisplatin; time from cisplatin to read-out not stated. Challenge: cisplatin at a dose killing half of control-siRNA cells; exact dose and duration not given. Detection: 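Cisplatin cell death as a shift from the 50% death seen with control siRNA; siRNAs toxic or growth-blocking alone scored 0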. Scale: two-siRNA summed score (-2 to +2): higher = both siRNAs protect from cisplatin killing; -2 means both sensitise. Active means: 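Each siRNA scores 0 if harmful alone by LDH or WST-1, otherwise +1 if it reduces and -1 if it increases cisplatin killing; a gene is active when both siRNAs agree (sum +2 or -2)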. Calls: active = both siRNAs shift cisplatin killing the same way; inactive = no consistent shift, or siRNA harmful alone.
In all, the deposit lists about 23,000 reagents; shown is a part drawn at random. 455 of all reagents (2%) count as active. 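Active includes both protection and sensitisation; some change values fall well beyond the stated -50 to +50 range.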 Reagents against one gene are numbered here. Further read-outs or replicates are left out here. Not stated in the record: the amount of reagent.

two-siRNA summed score (-2 to +2), by target gene and reagent
GAGE1: #1 0 inactive
PARP6: #1 0 inactive
KRTAP4-2: #1 0 inactive
HMGN2P46: #1 0 inactive
ASB16-AS1: #1 0 inactive
ALKBH7: #1 -1 inactive
RIBC1: #1 0 inactive
OR51F1: #1 0 inactive
AGBL3: #1 0 inactive
ATM: #1 1 inactive
DNAH17: #1 0 inactive; #2 0 inactive
NPNT: #1 1 inactive
IFT27: #1 0 inactive
DMAC1: #1 0 inactive
BAZ1B: #1 0 inactive
COL18A1: #1 0 inactive
LOC389318: #1 0 inactive
KRTAP4-1: #1 0 inactive
LOC402146: #1 0 inactive
LRRC7: #1 0 inactive
EHD4: #1 0 inactive
SOD1: #1 0 inactive
MSH6: #1 2 active
PCDHB8: #1 -1 inactive
TMEM80: #1 1 inactive
NFE2: #1 0 inactive
DEF6: #1 0 inactive
LOC440050: #1 2 active
LOC402689: #1 0 inactive
TMEM255A: #1 0 inactive
ADAMTS14: #1 -1 inactive
HHIPL1: #1 1 inactive
ITLN1: #1 0 inactive
LOC441441: #1 1 inactive
PINX1: #1 0 inactive
NIF3L1: #1 0 inactive
PF4V1: #1 -1 inactive
AGPAT4: #1 0 inactive
CYP4A22: #1 0 inactive
DLX1: #1 1 inactive
LOC440337 (retired record): #1 0 inactive
LOC440118: #1 1 inactive
PKD1L3: #1 0 inactive
NUFIP1: #1 0 inactive
C19orf18: #1 1 inactive
PPP1R3F: #1 0 inactive
IPO7: #1 0 inactive
LOC285590: #1 1 inactive
IFNA8: #1 0 inactive
MAT1A: #1 0 inactive
APOL5: #1 -1 inactive
BCL2: #1 -1 inactive
FOLR2: #1 0 inactive
OR2H2: #1 0 inactive
CTRL: #1 -1 inactive
CCDC38: #1 0 inactive
